Measurements taken from patent US20240164418A1, “ORGANIC SELENIUM ENRICHED EDIBLE MARINE MICROALGAL BIOMASS” (priority 2020, published 2024).
For at least one compound, name, drawing or mass did not settle the structure.

System: Nannochloropsis oceanica CASA CC201
Assay: Growth of N. oceanica exposed to different concentrations of sodium selenite (cell count)
Type: cell-based

In the case of `O=[Se](O)O` [sodium selenite, Sodium selenite], the “growth of N. oceanica CASA CC201” value (100 μM sodium selenite, cell count at 3 days interval) is reported as “slow when compared to control”, the “growth of N. oceanica CASA CC201” value (200-500 μM sodium selenite, from 21st day onwards) is reported as “started their growth” and the “growth of N. oceanica CASA CC201” value (high Se concentration) is reported as “stopped their growth after 3 days”.
